The list shows a part of the results.
Key:
Experiment in all cases: log2 fold change, soluble protein after heating vs DMSO (PISA); higher = thermal stabilisation; K562 lysate, 10 uM; active = over 0.2 and 3.5 SD of the protein, either way, in both replicates (recomputed)
vemurafenib = compound: CCCS(=O)(=O)Nc1ccc(F)c(C(=O)c2c[nH]c3ncc(-c4ccc(Cl)cc4)cc23)c1F [vemurafenib]
Summary of the method: (§1)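 The values are log-two fold changes in thermal stability compared with solvent controls and come from duplicates. They were obtained by TMTpro 16plex LC-MS/MS, with channel sums equalised, on the supernatant after 21,000xg for 90 min. That supernatant came from crude K562 extract at 1 mg/mL protein treated with 10 μM compound for 30 min, heated for 3 min across 48°C-58°C, pooled and brought to 0.5% NP-40 at 4°C.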

The chains behind the UniProt entries cited, without tags or fusion partners. Where a name states a change or a piece, a line headed by the entry shows the natural chain unless it says otherwise.
UniProt Q9NW81: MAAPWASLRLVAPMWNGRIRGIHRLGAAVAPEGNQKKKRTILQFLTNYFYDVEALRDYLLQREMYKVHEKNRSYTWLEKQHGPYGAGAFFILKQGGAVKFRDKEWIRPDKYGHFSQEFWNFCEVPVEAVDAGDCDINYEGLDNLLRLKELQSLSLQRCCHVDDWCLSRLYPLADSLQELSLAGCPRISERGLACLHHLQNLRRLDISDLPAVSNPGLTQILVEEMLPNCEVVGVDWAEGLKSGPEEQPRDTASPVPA
UniProt Q8TE73: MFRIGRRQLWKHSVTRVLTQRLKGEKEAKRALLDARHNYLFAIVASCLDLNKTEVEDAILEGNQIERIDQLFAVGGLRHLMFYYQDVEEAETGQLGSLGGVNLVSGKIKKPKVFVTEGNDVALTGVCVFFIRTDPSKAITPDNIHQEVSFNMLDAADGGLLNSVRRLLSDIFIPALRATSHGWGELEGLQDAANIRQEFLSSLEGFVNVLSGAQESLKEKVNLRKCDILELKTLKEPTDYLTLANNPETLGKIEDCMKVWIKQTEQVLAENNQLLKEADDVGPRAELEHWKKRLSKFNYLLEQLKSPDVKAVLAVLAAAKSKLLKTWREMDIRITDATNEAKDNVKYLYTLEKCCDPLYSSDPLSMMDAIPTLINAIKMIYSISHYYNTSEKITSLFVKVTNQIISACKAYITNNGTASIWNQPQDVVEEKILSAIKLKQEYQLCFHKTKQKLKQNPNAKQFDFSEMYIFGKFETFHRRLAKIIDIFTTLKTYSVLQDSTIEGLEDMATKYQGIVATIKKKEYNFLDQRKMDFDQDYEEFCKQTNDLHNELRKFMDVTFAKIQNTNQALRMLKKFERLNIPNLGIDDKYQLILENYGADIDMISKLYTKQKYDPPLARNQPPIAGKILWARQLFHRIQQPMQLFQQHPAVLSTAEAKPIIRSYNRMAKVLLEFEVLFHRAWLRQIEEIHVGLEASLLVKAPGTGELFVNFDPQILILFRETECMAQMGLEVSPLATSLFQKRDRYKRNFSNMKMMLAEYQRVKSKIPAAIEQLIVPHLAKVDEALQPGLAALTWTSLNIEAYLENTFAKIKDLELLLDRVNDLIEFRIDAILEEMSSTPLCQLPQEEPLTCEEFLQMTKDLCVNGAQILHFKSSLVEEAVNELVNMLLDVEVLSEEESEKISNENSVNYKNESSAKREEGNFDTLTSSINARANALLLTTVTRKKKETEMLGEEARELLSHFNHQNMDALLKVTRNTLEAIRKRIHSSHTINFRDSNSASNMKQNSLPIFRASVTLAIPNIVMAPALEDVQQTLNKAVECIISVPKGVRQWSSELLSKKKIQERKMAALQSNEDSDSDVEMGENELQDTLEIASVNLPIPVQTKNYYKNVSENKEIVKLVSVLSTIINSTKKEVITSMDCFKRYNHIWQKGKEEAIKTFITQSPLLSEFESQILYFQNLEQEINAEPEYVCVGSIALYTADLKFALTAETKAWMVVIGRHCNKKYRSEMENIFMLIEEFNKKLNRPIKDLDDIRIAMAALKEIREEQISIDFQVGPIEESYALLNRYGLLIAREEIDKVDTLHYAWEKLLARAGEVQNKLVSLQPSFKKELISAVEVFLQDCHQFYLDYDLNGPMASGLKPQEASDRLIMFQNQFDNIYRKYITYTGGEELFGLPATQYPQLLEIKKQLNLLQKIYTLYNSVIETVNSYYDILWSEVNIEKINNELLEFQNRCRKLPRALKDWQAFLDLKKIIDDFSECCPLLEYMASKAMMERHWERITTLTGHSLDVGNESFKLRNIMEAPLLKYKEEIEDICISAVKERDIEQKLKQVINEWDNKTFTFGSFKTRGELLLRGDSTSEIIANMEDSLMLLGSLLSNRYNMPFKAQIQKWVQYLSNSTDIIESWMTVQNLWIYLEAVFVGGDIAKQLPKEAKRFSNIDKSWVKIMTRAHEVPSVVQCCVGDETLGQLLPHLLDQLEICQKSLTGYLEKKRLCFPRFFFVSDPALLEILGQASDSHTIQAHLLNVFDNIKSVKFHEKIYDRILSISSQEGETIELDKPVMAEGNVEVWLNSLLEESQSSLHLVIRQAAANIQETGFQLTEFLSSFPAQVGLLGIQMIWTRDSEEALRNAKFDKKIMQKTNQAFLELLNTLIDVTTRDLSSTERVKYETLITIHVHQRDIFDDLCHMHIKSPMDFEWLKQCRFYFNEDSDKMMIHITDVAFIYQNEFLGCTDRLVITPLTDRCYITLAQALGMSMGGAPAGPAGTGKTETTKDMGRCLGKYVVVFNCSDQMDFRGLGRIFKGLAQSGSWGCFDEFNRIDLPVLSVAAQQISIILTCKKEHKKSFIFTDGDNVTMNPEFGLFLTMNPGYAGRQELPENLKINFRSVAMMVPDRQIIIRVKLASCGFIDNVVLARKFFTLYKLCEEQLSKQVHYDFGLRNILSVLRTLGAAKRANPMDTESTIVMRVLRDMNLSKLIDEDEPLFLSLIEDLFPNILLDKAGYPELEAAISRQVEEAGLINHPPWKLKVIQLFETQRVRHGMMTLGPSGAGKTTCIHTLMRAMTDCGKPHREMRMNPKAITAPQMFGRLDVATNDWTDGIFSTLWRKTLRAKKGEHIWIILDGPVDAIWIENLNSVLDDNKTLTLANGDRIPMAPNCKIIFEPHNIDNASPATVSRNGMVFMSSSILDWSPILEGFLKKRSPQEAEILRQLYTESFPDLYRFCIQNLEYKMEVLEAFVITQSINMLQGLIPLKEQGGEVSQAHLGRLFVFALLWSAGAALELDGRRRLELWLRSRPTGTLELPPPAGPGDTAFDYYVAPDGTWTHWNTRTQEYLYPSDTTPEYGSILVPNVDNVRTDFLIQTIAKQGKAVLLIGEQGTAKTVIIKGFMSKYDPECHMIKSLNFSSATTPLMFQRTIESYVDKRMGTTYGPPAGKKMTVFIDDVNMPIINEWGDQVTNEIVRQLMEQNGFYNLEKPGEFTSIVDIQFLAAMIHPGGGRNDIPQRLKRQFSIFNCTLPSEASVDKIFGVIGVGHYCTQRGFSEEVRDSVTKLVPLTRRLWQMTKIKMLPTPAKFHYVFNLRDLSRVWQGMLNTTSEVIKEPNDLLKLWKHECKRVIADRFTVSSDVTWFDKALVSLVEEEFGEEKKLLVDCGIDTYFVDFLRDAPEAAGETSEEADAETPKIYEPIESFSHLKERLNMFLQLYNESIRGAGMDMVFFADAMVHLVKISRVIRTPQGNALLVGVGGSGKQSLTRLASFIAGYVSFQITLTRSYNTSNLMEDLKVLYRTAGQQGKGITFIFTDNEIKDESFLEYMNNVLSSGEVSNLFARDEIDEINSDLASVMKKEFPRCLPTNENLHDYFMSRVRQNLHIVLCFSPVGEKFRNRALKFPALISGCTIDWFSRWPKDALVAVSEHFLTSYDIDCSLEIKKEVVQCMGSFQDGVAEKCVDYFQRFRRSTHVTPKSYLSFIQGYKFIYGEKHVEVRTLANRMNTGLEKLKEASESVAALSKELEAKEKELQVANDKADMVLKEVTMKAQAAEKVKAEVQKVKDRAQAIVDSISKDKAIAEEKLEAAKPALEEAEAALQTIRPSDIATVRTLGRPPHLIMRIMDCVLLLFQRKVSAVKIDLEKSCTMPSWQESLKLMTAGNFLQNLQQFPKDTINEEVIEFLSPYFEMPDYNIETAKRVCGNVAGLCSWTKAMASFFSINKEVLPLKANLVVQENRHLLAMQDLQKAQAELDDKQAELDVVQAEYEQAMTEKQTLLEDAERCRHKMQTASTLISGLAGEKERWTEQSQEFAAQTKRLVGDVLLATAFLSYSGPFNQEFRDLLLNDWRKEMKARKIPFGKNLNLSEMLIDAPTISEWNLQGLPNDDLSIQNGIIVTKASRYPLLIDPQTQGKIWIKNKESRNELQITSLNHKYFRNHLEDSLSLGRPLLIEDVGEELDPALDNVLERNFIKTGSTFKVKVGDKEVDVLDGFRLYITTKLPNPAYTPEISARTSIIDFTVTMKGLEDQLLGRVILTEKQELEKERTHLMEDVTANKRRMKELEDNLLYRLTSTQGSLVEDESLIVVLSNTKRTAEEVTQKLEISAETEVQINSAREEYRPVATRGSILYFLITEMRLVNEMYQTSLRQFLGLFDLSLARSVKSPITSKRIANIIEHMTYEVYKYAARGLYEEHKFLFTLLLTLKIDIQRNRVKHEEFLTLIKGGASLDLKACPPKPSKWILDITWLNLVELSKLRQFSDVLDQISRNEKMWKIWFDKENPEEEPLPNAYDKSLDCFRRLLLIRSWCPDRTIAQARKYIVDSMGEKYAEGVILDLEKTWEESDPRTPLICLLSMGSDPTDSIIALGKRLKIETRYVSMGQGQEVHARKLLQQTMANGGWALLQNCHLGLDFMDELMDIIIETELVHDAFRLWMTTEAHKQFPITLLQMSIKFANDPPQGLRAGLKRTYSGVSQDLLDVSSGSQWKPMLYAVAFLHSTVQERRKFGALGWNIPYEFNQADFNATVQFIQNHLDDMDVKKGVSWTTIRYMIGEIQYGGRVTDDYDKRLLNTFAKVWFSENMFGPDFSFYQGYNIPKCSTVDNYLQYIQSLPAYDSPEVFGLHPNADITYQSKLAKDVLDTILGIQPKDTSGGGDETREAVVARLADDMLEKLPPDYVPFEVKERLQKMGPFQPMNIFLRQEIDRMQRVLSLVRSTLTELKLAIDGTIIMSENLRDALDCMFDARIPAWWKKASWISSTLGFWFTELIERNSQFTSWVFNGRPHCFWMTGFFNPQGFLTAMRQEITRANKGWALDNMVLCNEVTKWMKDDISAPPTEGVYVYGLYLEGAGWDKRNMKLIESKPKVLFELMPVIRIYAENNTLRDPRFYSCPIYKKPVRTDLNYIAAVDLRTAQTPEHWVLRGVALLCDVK
UniProt Q8N5I4: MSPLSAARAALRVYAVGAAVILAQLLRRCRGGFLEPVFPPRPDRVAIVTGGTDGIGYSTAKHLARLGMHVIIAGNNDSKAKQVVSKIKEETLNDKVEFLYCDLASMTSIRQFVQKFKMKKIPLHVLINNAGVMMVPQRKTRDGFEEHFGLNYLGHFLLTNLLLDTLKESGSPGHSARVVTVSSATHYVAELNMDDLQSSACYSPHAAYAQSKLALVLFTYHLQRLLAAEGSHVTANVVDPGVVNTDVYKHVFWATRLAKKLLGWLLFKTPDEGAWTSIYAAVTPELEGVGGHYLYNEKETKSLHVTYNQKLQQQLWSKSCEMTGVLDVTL
UniProt Q96HY7: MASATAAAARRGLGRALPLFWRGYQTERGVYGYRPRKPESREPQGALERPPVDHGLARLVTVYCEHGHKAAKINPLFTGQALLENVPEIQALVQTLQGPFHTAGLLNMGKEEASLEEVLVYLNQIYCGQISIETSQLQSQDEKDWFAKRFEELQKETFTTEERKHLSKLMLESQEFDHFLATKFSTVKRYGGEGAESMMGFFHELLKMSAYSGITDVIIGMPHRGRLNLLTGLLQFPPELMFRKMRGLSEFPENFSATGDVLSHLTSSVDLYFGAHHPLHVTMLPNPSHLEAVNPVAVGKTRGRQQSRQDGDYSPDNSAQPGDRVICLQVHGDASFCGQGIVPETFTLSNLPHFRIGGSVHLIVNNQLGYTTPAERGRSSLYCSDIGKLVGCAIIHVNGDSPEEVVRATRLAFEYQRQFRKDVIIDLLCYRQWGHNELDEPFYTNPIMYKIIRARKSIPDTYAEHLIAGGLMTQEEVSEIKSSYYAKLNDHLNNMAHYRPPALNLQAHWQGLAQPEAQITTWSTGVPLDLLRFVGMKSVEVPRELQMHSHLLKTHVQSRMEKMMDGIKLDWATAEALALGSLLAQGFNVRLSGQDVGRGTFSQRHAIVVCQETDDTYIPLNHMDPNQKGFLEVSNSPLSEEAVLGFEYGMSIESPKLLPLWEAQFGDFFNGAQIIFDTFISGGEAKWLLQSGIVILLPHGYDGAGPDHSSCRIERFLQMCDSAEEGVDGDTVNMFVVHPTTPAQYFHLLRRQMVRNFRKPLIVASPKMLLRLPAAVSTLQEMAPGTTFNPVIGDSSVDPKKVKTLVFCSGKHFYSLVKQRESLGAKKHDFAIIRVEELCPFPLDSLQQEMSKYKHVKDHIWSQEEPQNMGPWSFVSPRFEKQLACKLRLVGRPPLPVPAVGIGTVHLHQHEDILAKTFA
UniProt Q9H3H5: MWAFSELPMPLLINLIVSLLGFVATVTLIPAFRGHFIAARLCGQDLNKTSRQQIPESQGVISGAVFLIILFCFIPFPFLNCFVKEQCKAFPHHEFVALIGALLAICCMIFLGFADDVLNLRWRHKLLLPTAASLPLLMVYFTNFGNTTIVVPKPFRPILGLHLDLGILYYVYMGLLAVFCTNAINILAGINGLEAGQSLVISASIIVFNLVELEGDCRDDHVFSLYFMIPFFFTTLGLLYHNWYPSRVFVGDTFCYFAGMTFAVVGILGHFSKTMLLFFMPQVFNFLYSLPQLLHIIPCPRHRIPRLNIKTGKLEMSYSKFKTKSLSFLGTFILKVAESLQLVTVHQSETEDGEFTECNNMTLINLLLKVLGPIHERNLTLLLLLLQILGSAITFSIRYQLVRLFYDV

[1] = compound: CCCS(=O)(=O)Nc1ccc(F)c(C(=O)c2c[nH]c3ncc(Cl)cc23)c1F
Summary of the method: as §1

[2] = compound: CC[C@@H]1C(=O)N(C)c2cnc(Nc3ccc(C(=O)NC4CCN(C)CC4)cc3OC)nc2N1C1CCCC1
Summary of the method: as §1

volasertib = compound: CC[C@@H]1C(=O)N(C)c2cnc(Nc3ccc(C(=O)N[C@H]4CC[C@H](N5CCN(CC6CC6)CC5)CC4)cc3OC)nc2N1C(C)C [volasertib]
Summary of the method: as §1

[3] = compound: CCn1c(C(=O)N(C2CC2)C2CC2)cc2c3c(ncn3C)c(Nc3cc(C)n(C)n3)nc21
Summary of the method: as §1

[4] = compound: CCn1cc(-c2ccnc3[nH]c(-c4cccc(CN(C)C)c4)cc23)c(-c2ccc(NC(=O)N(C)C)cc2)n1
Summary of the method: as §1

[5] = compound: CN1CCC(CNc2ccc3ncc(-c4cccc(OC(F)(F)F)c4)n3n2)CC1
Summary of the method: as §1

saracatinib = compound: CN1CCN(CCOc2cc(OC3CCOCC3)c3c(Nc4c(Cl)ccc5c4OCO5)ncnc3c2)CC1 [saracatinib]
Summary of the method: as §1

sotrastaurin = compound: CN1CCN(c2nc(C3=C(c4c[nH]c5ccccc45)C(=O)NC3=O)c3ccccc3n2)CC1 [sotrastaurin]
Summary of the method: as §1

barasertib = compound: CCN(CCCOc1ccc2c(Nc3cc(CC(=O)Nc4cccc(F)c4)[nH]n3)ncnc2c1)CCOP(=O)(O)O [barasertib]
Summary of the method: as §1

Target | log2 fold change (vemurafenib) | log2 fold change [1] | log2 fold change [2] | log2 fold change (volasertib) | log2 fold change [3] | log2 fold change [4] | log2 fold change [5] | log2 fold change (saracatinib) | log2 fold change (sotrastaurin) | log2 fold change (barasertib)
DNAJC24 (UniProt Q6P3W2) | inactive: 0.141 | inactive: -0.038 | inactive: 0.017 | inactive: 0.027 | inactive: 0.002 | inactive: 0.196 | active: -0.309 | inactive: -0.013 | inactive: -0.032 | –
DNTTIP1 (UniProt Q9H147) | inactive: -0.048 | inactive: 0.094 | inactive: 0.073 | inactive: 0.036 | – | inactive: 0.133 | inactive: -0.157 | inactive: 0.011 | – | –
DMAC2 isoform 4 (UniProt Q9NW81) | inactive: 0.085 | inactive: 0.039 | inactive: -0.043 | inactive: 0.006 | inactive: -0.032 | inactive: -0.017 | inactive: -0.016 | – | inactive: 0.075 | inactive: -0.076
DMAC1 (UniProt Q96GE9) | inactive: -0.094 | – | – | – | inactive: 0.007 | inactive: 0.041 | inactive: -0.142 | – | – | –
DNAJB2 (UniProt P25686) | inactive: 0.158 | – | inactive: 0.116 | – | – | inactive: 0.005 | inactive: 0.005 | inactive: -0.012 | inactive: -0.034 | inactive: -0.075
DNAH12 (UniProt Q6ZR08) | inactive: 0.083 | – | – | – | – | inactive: -0.131 | inactive: 0.264 | inactive: 0.052 | – | inactive: 0.074
DNAJC10 (UniProt Q8IXB1) | inactive: -0.012 | inactive: 0.041 | inactive: 0.002 | inactive: -0.036 | inactive: 0.01 | inactive: -0.034 | inactive: 0.051 | inactive: -0.004 | inactive: 0 | inactive: 0.012
DHX9 (UniProt Q08211) | inactive: -0.001 | inactive: 0.022 | inactive: 0.022 | inactive: -0.017 | inactive: 0.035 | inactive: 0.002 | inactive: -0.03 | inactive: 0.007 | inactive: 0.006 | inactive: -0.006
DNAH5 (UniProt Q8TE73) | inactive: 0.007 | inactive: 0.074 | – | inactive: 0.02 | inactive: -0.035 | active: -0.481 | inactive: 0.122 | inactive: 0.007 | – | inactive: 0.006
DGKQ (UniProt P52824) | inactive: 0.076 | inactive: 0.096 | inactive: 0.03 | inactive: -0.008 | inactive: 0.031 | inactive: -0.134 | inactive: 0.071 | inactive: 0 | – | –
DNHD1 (UniProt Q96M86) | inactive: 0.078 | inactive: -0.003 | – | inactive: 0.005 | inactive: -0.118 | – | – | – | inactive: 0.022 | inactive: 0.075
DHX32 (UniProt Q7L7V1) | inactive: 0.173 | – | inactive: -0.026 | – | inactive: -0.106 | inactive: 0.137 | inactive: 0.003 | – | inactive: -0.011 | –
DNAJA3 isoform 2 (UniProt Q96EY1) | inactive: 0.212 | – | inactive: 0.07 | – | inactive: -0.087 | – | – | inactive: 0.001 | – | inactive: 0.019
DMBT1 isoform 6 (UniProt Q9UGM3) | inactive: 0.13 | – | inactive: -1.9 | – | – | inactive: 1.19 | inactive: -1.75 | – | – | –
DOCK5 (UniProt Q9H7D0) | – | inactive: -0.004 | – | inactive: -0.176 | – | – | – | – | – | –
DOCK11, A0A0J9YW64 | – | – | – | – | – | inactive: -0.079 | inactive: 0.11 | – | – | inactive: 0.084
DNAJC16 (UniProt Q9Y2G8) | – | – | – | – | inactive: -0.184 | inactive: 0.142 | inactive: -0.036 | inactive: 0.026 | inactive: 0.004 | inactive: 0.171
DLX2 (UniProt Q07687) | – | – | – | – | inactive: -0.246 | – | – | – | – | –
DHRSX (UniProt Q8N5I4) | inactive: -0.14 | – | – | – | inactive: -0.046 | – | – | inactive: -0.019 | – | –
DNAJB1 (UniProt M0R128) | – | inactive: 0.01 | – | inactive: 0.074 | inactive: -0.162 | inactive: -0.139 | inactive: 0.042 | – | – | inactive: 0.057
DOK2 (UniProt O60496) | – | inactive: -0.154 | – | inactive: -0.092 | inactive: 0.133 | inactive: 0.08 | inactive: -0.02 | – | – | –
DGLUCY isoform 2 (UniProt Q7Z3D6) | – | – | – | – | – | – | – | – | inactive: 0.075 | –
DLGAP5 isoform 3 (UniProt Q15398) | – | – | – | – | – | inactive: -0.165 | inactive: -0.03 | inactive: 0.165 | – | inactive: 0.281
DNMT1 (UniProt P26358) | – | – | – | – | inactive: -0.026 | inactive: 0.141 | inactive: -0.07 | – | inactive: 0.13 | inactive: -0.116

Target | log2 fold change (vemurafenib) | log2 fold change [1] | log2 fold change [2] | log2 fold change (volasertib) | log2 fold change [3] | log2 fold change [4] | log2 fold change [5] | log2 fold change (saracatinib) | log2 fold change (sotrastaurin) | log2 fold change (barasertib)
DNASE1L1 (UniProt P49184) | – | inactive: 0.174 | – | inactive: 0.056 | inactive: -0.255 | inactive: 0.031 | inactive: 0.111 | – | – | –
DNPEP (UniProt B9ZVU2) | – | inactive: 0.07 | inactive: 0.098 | inactive: -0.031 | inactive: 0.023 | – | – | inactive: 0.039 | inactive: -0.064 | –
DLG1 isoform 3 (UniProt Q12959) | – | – | – | – | inactive: -0.202 | – | – | – | – | inactive: 0.108
DMD isoform 14 (UniProt P11532) | – | – | – | – | inactive: -0.397 | inactive: -0.151 | inactive: -0.112 | inactive: -0.093 | inactive: 0.065 | inactive: -0.29
DHTKD1 (UniProt Q96HY7) | – | inactive: 0.059 | – | inactive: 0.073 | inactive: 0.049 | inactive: -0.017 | inactive: -0.153 | – | inactive: 0.065 | inactive: -0.076
DOLK (UniProt Q9UPQ8) | – | – | – | – | – | inactive: 0 | inactive: -0.232 | – | – | –
DOP1A (UniProt Q5JWR5) | – | – | inactive: 0.054 | – | – | – | – | inactive: 0.106 | inactive: -0.028 | inactive: 0.04
DHPS (UniProt M0R1T2) | – | – | – | – | – | inactive: 0.028 | inactive: -0.048 | – | – | –
DNAJC19, A0A2R8Y839 | – | – | – | – | – | – | – | – | inactive: 0.008 | –
DIPK1A (UniProt Q5T7M9) | – | – | inactive: -0.03 | – | – | – | – | – | – | –
DLC1 (UniProt Q96QB1) | – | – | inactive: 0.097 | – | inactive: 0.081 | – | – | – | inactive: -0.019 | inactive: -0.017
DOCK6 (UniProt Q96HP0) | – | – | – | – | – | – | – | inactive: -0.043 | – | –
DNM2 isoform 4 (UniProt P50570) | – | inactive: -0.001 | inactive: -0.018 | inactive: -0.031 | inactive: -0.014 | inactive: -0.153 | inactive: 0.021 | inactive: -0.047 | inactive: -0.031 | –
DONSON (UniProt Q9NYP3) | – | inactive: 0.017 | – | inactive: 0.026 | inactive: -0.036 | inactive: -0.026 | inactive: -0.206 | inactive: 0.013 | inactive: 0.016 | inactive: -0.03
DNMT3A (UniProt Q9Y6K1) | – | inactive: 0.069 | – | inactive: 0.32 | – | inactive: 0.2 | inactive: 0.188 | – | – | –
DNAJB14 (UniProt H7C494) | – | – | – | – | inactive: 0.001 | inactive: 0.013 | inactive: -0.022 | – | inactive: -0.045 | –
DPAGT1 (UniProt Q9H3H5) | – | inactive: 0.041 | – | inactive: 0.006 | inactive: 0.161 | inactive: -0.121 | inactive: 0.039 | – | inactive: -0.007 | inactive: 0.015
DHX33 (UniProt Q9H6R0) | – | inactive: 0.14 | – | inactive: 0.046 | – | inactive: 0.092 | inactive: -0.006 | inactive: -0.056 | – | –
DNAJC14 (UniProt Q6Y2X3) | – | – | inactive: -0.125 | – | inactive: -0.049 | – | – | inactive: 0 | – | –
DNM1 (UniProt Q05193) | – | inactive: 0.09 | – | inactive: -0.075 | inactive: -0.01 | inactive: 0.005 | inactive: -0.011 | inactive: 0.137 | inactive: 0.156 | inactive: 0.028
DGCR6L (UniProt Q9BY27) | – | – | – | – | inactive: 0.114 | inactive: -0.035 | inactive: 0.052 | – | inactive: 0.011 | –
DNLZ (UniProt Q5SXM8) | – | inactive: -0.095 | – | inactive: 0.068 | inactive: 0.036 | inactive: 0 | inactive: -0.129 | – | – | –
DHRS13 (UniProt Q6UX07) | – | inactive: 0.291 | – | inactive: -0.274 | inactive: 0.077 | – | – | inactive: -0.031 | inactive: 0.095 | inactive: 0.236
DNAJB9 (UniProt Q9UBS3) | – | inactive: 0.02 | – | inactive: -0.183 | inactive: 0.175 | – | – | inactive: 0.051 | inactive: -0.015 | –

An excerpt of these results, as a markdown table:

| Target | log2 fold change (vemurafenib) | log2 fold change [1] | log2 fold change [2] | log2 fold change (volasertib) | log2 fold change [3] | log2 fold change [4] | log2 fold change [5] | log2 fold change (saracatinib) | log2 fold change (sotrastaurin) | log2 fold change (barasertib) |
| --- | --- | --- | --- | --- | --- | --- | --- | --- | --- | --- |
| DHX32 (UniProt Q7L7V1) | inactive: 0.173 | – | inactive: -0.026 | – | inactive: -0.106 | inactive: 0.137 | inactive: 0.003 | – | inactive: -0.011 | – |
| DNAJA3 isoform 2 (UniProt Q96EY1) | inactive: 0.212 | – | inactive: 0.07 | – | inactive: -0.087 | – | – | inactive: 0.001 | – | inactive: 0.019 |
| DMBT1 isoform 6 (UniProt Q9UGM3) | inactive: 0.13 | – | inactive: -1.9 | – | – | inactive: 1.19 | inactive: -1.75 | – | – | – |
